# Structures can show the parent of a compound that is named as a salt. This is one part of the list. Most values lie at the level of the controls, where differences are scatter.
# System: hPSC-derived cortical neurons (WA09)
# Test: nucleus area z-score vs screen plate; higher = larger nuclei (more mature)
# Conditions: 5 µM; treatment: days 7-14 after plating, readout day 21
row,Structure (SMILES),nucleus area z-score
1,CC(C)NC[C@H](O)COc1ccc(CCOCC2CC2)cc1 [Levobetaxolol HCl],0.476
2,O=C(NC1CCN(CCCCC2(C(=O)NCC(F)(F)F)c3ccccc3-c3ccccc32)CC1)c1ccccc1-c1ccc(C(F)(F)F)cc1 [Lomitapide],-16.3
3,COc1cc(C(C)=O)ccc1O [Apocynin],-0.0959
4,c1ccc2c(Oc3nc(Nc4ccc(N5CCOCC5)cc4)c4ncn(C5CCCCC5)c4n3)cccc2c1 [Purmorphamine],0.0441
5,COc1cccc(Nc2c(C(N)=O)cnc3c(C)cc(S(=O)(=O)c4cccc(C(=O)N(C)C)c4)cc23)c1,-2.2
6,Cc1ncc(-c2ccnc(Nc3ccc(S(C)(=O)=O)cc3)n2)n1C(C)C,-2.34
7,CCC(C)(Oc1ccc(C2(c3ccc(OC(C)(CC)C(=O)O)cc3)CCCCC2)cc1)C(=O)O (configuration not stated) [Clinofibrate],0.201
8,C[C@H](CCC(=O)O)[C@H]1CC[C@H]2[C@@H]3C(=O)C[C@@H]4CC(=O)CC[C@]4(C)[C@H]3CC(=O)[C@]12C [Dehydrocholic acid],0.496
9,CC1=C(/C=C/C(C)=C/C=C/C(C)=C\C(=O)O)C(C)(C)CCC1 [Isotretinoin],0.544
10,Cc1ccsc1C(=CCCN1CCC[C@@H](C(=O)O)C1)c1sccc1C [Tiagabine hydrochloride],-0.447
11,C#C[C@]1(O)CC[C@H]2[C@@H]3CCc4cc(O)ccc4[C@H]3CC[C@@]21C [Ethinyl Estradiol],-0.395
12,O=C(Nc1c(Cl)cncc1Cl)c1ccc(OC(F)F)c(OCC2CC2)c1 [Roflumilast],1.57
